Consider seven compounds from patent publication US12038445B2, “Liver disease-related biomarkers and methods of use thereof” (Human Metabolomics Institute, Inc., priority 2016, dated 2024).

This data set is described as follows: Seven-BA panel in validation population (HB, fibrosis, cirrhosis, HCC). The arrangement: species or system human.

For the compound `C[C@H](CCC(=O)NCC(=O)O)[C@H]1CC[C@H]2[C@@H]3[C@@H](O)C[C@@H]4C[C@H](O)CC[C@]4(C)[C@H]3CC[C@]12C` [GUDCA, glycoursodeoxycholic acid], the “Serum BA concentration” value by setting is: (CLD, mean) 325.59; (HB, mean) 183; (HCC, mean) 396.15; (Healthy, mean) 20.59; (cirrhosis C PA, mean) 384.04; (cirrhosis CP B, mean) 552.14. In addition, the “Serum BA concentration” value reads like this: (cirrhosis CP C, mean) 800.07; (fibrosis S1, mean) 37.77; (fibrosis S2, mean) 86.67; (fibrosis S3, mean) 112.12.
`C[C@H](CCC(=O)NCC(=O)O)[C@H]1CC[C@H]2[C@@H]3[C@H](O)C[C@@H]4C[C@H](O)CC[C@]4(C)[C@H]3C[C@H](O)[C@]12C` [GCA, glycocholic acid]: the “Serum BA concentration” value (CLD, mean) is 1958.25; the “Serum BA concentration” value (HB, mean) was 800.53; the “Serum BA concentration” value (HCC, mean) amounted to 1996.93; the “Serum BA concentration” value (Healthy, mean) worked out at 72.99; the “Serum BA concentration” value (cirrhosis C PA, mean) is listed as 3097.95; the “Serum BA concentration” value (cirrhosis CP B, mean) came to 3077.65. Moreover, the “Serum BA concentration” value came out at 4591.56 (cirrhosis CP C, mean); 590.17 (fibrosis S1, mean); 1956.61 (fibrosis S2, mean); 775.59 (fibrosis S3, mean).
On to `C[C@H](CCC(=O)NCCS(=O)(=O)O)[C@H]1CC[C@H]2[C@@H]3[C@H](O)C[C@@H]4C[C@H](O)CC[C@]4(C)[C@H]3CC[C@]12C` [TCDCA, taurochenodeoxycholic acid], for which the “Serum BA concentration” value by setting is: (CLD, mean) 1095.09; (HB, mean) 302.37; (HCC, mean) 1874.03; (Healthy, mean) 17.73; (cirrhosis C PA, mean) 1200.95; (cirrhosis CP B, mean) 2014.23. Moreover, the “Serum BA concentration” value is 2648.25 (cirrhosis CP C, mean); 100.43 (fibrosis S1, mean); 167.06 (fibrosis S2, mean); 123.19 (fibrosis S3, mean).
Turning to `C[C@H](CCC(=O)O)[C@H]1CC[C@H]2[C@@H]3C(=O)C[C@@H]4C[C@H](O)CC[C@]4(C)[C@H]3CC[C@]12C` [7-KLCA, 7-ketolithocholic acid], the “Serum BA concentration” value reads like this: (CLD, mean) 11.14; (HB, mean) 6.79; (HCC, mean) 14.61; (Healthy, mean) 2.26; (cirrhosis C PA, mean) 16.95; (cirrhosis CP B, mean) 17.49. For the same compound, the “Serum BA concentration” value was determined as 9.49 (cirrhosis CP C, mean); 2.35 (fibrosis S1, mean); 3.92 (fibrosis S2, mean); 5.11 (fibrosis S3, mean).
In the case of `C[C@H](CCC(=O)NCCS(=O)(=O)O)[C@H]1CC[C@H]2[C@@H]3[C@@H](O)C[C@@H]4C[C@H](O)CC[C@]4(C)[C@H]3CC[C@]12C` [TUDCA, tauroursodeoxycholic acid], the “Serum BA concentration” value (CLD, mean) came out at 59.35; the “Serum BA concentration” value (HB, mean) is listed as 9.86; the “Serum BA concentration” value (HCC, mean) was determined as 104.31; the “Serum BA concentration” value (Healthy, mean) is 1.44; the “Serum BA concentration” value (cirrhosis C PA, mean) was determined as 110.24; the “Serum BA concentration” value (cirrhosis CP B, mean) came to 112.31. The “Serum BA concentration” value runs as follows: (cirrhosis CP C, mean) 27.14; (fibrosis S1, mean) 2.07; (fibrosis S2, mean) 4.69; (fibrosis S3, mean) 8.98.
`CC(CCC(=O)NCC(=O)O)C1CCC2C3C(O)CC4CC(O)CCC4(C)C3CCC12C` (stereo not shown) [GCDCA, glycochenodeoxycholic acid]: the “Serum BA concentration” value is 3177.28 (CLD, mean); 1303.79 (HB, mean); 2944.03 (HCC, mean); 253.17 (Healthy, mean); 4932.87 (cirrhosis C PA, mean); 4450.66 (cirrhosis CP B, mean). The “Serum BA concentration” value by setting is: (cirrhosis CP C, mean) 10659.05; (fibrosis S1, mean) 1294.84; (fibrosis S2, mean) 2554.43; (fibrosis S3, mean) 1691.2.
Regarding `C[C@H](CCC(=O)NCCS(=O)(=O)O)[C@H]1CC[C@H]2[C@@H]3[C@H](O)C[C@@H]4C[C@H](O)CC[C@]4(C)[C@H]3C[C@H](O)[C@]12C` [TCA, taurocholic acid], the “Serum BA concentration” value came out at 1048.86 (CLD, mean); 178.59 (HB, mean); 975.61 (HCC, mean); 6.24 (Healthy, mean); 2204.49 (cirrhosis C PA, mean); 1738.21 (cirrhosis CP B, mean). Moreover, the “Serum BA concentration” value (cirrhosis CP C, mean) is listed as 3482.81; the “Serum BA concentration” value (fibrosis S1, mean) is recorded as 333.19; the “Serum BA concentration” value (fibrosis S2, mean) came to 589.34; the “Serum BA concentration” value (fibrosis S3, mean) is listed as 208.23.
